Measured values as given in PMC12375108.
No constants are given. Whether binding was seen depends on the method and setting. For some of these results: Binding can be weak; no strength is given.

What was measured:
AMPylated sodA [1] = molecular target: T1, AMPylated sodA (UniProt P00448); experiment: far-Western, overlay or dot blot; auto-ADP-ribosylated PARP1 (no, 3 μM or 250 μM NAD+) and sodA-AMP on membrane probed with Tm hinT H100N (Supplementary Fig. 12a); whether dot blot or far western is not given; both purified
T1 sequence (chain, AMPylated on tyrosine, residue not printed): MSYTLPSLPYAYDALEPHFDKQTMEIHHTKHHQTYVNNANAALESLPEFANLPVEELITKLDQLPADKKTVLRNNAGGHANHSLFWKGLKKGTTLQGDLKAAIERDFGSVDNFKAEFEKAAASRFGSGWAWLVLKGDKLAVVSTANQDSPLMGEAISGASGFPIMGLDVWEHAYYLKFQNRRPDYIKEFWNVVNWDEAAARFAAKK

AMPylated sodA [2] = molecular target: T1, AMPylated sodA; experiment: far-Western, overlay or dot blot; far western: 0.5 μg/lane of AMPylated and non-AMPylated SodA, Rab1, Rac1 and BiP resolved by SDS-PAGE, membrane probed with 0.06 μg/ml GST-hinT homologs for 1 h at room temperature, detected with α-GST; both purified
AMPylated sodA [3] = molecular target: T1, AMPylated sodA; experiment: far-Western, overlay or dot blot; dot blot: 400 ng to 25 ng of AMPylated or non-AMPylated protein spotted on nitrocellulose, probed with GST or GST-hinT at 0.125 μg/mL in TBST for 1 h, detected with α-GST; both purified
non-AMPylated sodA = molecular target: T2, non-AMPylated sodA (UniProt P00448); experiment: as above
T2 sequence: T1 sequence (chain, AMPylated on tyrosine, residue not printed)

- binding (AMPylated sodA [1]): binds
- binding (AMPylated sodA [2]): binds
- binding (AMPylated sodA [3]): binds
Substance: GST-tagged T. marianensis hinT H100N (Thermaerobacter marianensis) (enzyme)
- binding (non-AMPylated sodA): no binding (tested: 0.125 μg/mL; up to 400 ng spotted)
